Measurements: PubChem BioAssay AID624297 (National Center for Advancing Translational Sciences (NCATS), 2012)
About 6,200 (1.8%) of roughly 340,000 compounds were called active. The inconclusive results got no clear call from the source; some entries with a clear call stand among them for comparison. Calls come from the whole dose curve; as a rule, active = well fitted activation curve with a large enough effect; inconclusive = small, poorly fitted or top-dose-only effect; inactive = no such curve, though single readings can be large or run the other way. A potency beside an inconclusive call is a rough fit, not a confirmed value.

Assay: A quantitative high throughput screen for small molecules that induce DNA re-replication in SW480 colon adenocarcinoma cells. For re-replication activation: % of control where 0% means no effect. Note: nearly all actives have a fitted effect of over 55% in size.
Settings: Hoechst DNA content imaging, 48 h; re-replication activation: at 46.1 µM (top of the series) unless noted
Method in brief: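 Cells (250 per well) received 23 nL compound or DMSO by pin tool and were kept 48 hr at 37 C, 5% CO2. Nuclei were then stained with Hoechst for 40 min and scanned for DNA content.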
Potency is the fitted concentration of half-maximal effect.

For CCc1ccc(-c2nc(C(N)=O)c3[nH]c(=O)n(-c4ccccc4OC)c3n2)cc1, which Potency is on record?
The Potency was active: 9.2 µM.

For Cc1ccc(CN(C)C(=O)c2ccccc2NC(=O)c2ccccc2)o1, which Potency is on record?
Its Potency is “inactive”.

Which Potency does the source give for O=C1CC(C(=O)Nc2cccc(F)c2)n2c(nc3ccccc32)N1 (stereo unspecified) here?
Its Potency is inconclusive: 18.4 µM [activator, partial curve, poor fit].

With COc1cccc(N2CCN(C(=O)c3cc(C)oc3C)CC2)c1 as the compound, how does the Potency read?
The Potency was inconclusive: 16.4 µM [activator, single point].

Which Potency does the source give for CC1=Nc2ccccc2/C1=C/c1c(N)n2c(S(=O)(=O)CC(C)C)nsc2nc1=O here?
The Potency was “inactive”.

Which Potency does the source give for O=C(c1ccc([N+](=O)[O-])s1)N1CCN(c2ccc(C(F)(F)F)cn2)CC1 here?
Its Potency is “inactive”.

Which Potency does the source give for CCOC(=O)Cn1c(CN2CCc3ccccc3C2)nc2c1c(=O)n(C)c(=O)n2C here?
The Potency was “inactive”.

Which Potency does the source give for CC(C)(C)c1csc(NC(=O)C2COc3ccccc3O2)n1 (stereo unspecified) here?
Its Potency is inconclusive: 29.1 µM [activator, partial curve, poor fit].

Which Potency does the source give for CC(C)(CO)CNC(=O)c1ccc(OC2CCN(C(=O)C3CC3)CC2)cc1 here?
The Potency was inconclusive: 2.24 µM [activator, single point].

Which re-replication activation does the source give for C[C@H](CO)N1C[C@H](C)[C@@H](CN(C)S(=O)(=O)c2cccs2)Oc2c(NS(=O)(=O)c3ccccc3)cccc2C1=O here?
The re-replication activation was inactive: -50% [at 9.22 µM].

Which Potency does the source give for COc1ccc(S(=O)(=O)N2CCCCC2)cc1NC(=O)C1CC1C (stereo unspecified) here?
The Potency was “inactive”.

Which Potency does the source give for O=C(COC(=O)C12CC3CC(CC(O)(C3)C1)C2)NCCc1ccc(Cl)cc1 here?
Its Potency is inconclusive: 0.366 µM [activator, partial curve, poor fit].

For CCOC(=O)C1(Cc2cccc(F)c2)CCN(C(=O)C2CCOCC2)CC1, which Potency is on record?
The Potency was inconclusive: 9.2 µM [activator, single point].

With Oc1ccc(Br)cc1-c1n[nH]c(=S)n1Cc1ccccc1 as the compound, how does the Potency read?
Its Potency is “inactive”.

For COc1ccccc1C(=O)NCCC(=O)Nc1ccc(OC(F)(F)F)cc1, which Potency is on record?
The Potency was “inactive”.

For CCCCC(=O)Nc1ccc(C(=O)NNC(=S)NC(=O)c2cccs2)cc1, which Potency is on record?
Its Potency is “inactive”.

With COc1cccc(COc2ccccc2C2Nc3ccc(Br)cc3C(=O)N2NC(=O)c2ccncc2)c1 (stereo unspecified) as the compound, how does the Potency read?
Its Potency is inconclusive: 29.1 µM [activator, single point].

With COC(=O)CNC(c1ccccc1)c1cc(Cl)ccc1NC(=O)c1cccc(Cl)c1 (stereo unspecified) as the compound, how does the Potency read?
Its Potency is inconclusive: 16.4 µM [activator, partial curve, poor fit].

With CCOc1ccc(/C=N/NC(=O)c2ccccc2O)cc1CN1CC2CC(C1)c1cccc(=O)n1C2 (stereo unspecified) as the compound, how does the Potency read?
Its Potency is inconclusive: 18.4 µM [activator, partial curve, poor fit].

Which Potency does the source give for CCCN(C(=O)c1cccc(-n2cccc2)c1)c1c(N)n(Cc2ccccc2)c(=O)[nH]c1=O here?
Its Potency is inconclusive: 0.82 µM [activator, full curve, poor fit].

Which Potency does the source give for COc1ccc(Cl)cc1NC(=O)CN(C)CC(=O)Nc1ccccc1N1CCOCC1 here?
The Potency was active: 5.17 µM.

Which Potency does the source give for CCc1ccc(C(O)(CNCc2ccccc2)c2ccccc2)cc1 (stereo unspecified) here?
Its Potency is inconclusive: 23.1 µM [activator, single point].

For COc1ccccc1CNS(=O)(=O)c1cc2c3c(c1)CCN3C(=O)CC2, which Potency is on record?
The Potency was “inactive”.

Which Potency does the source give for CC(C)CNC(=O)c1cc(-c2ccc3c(c2)OCO3)on1 here?
The Potency was “inactive”.

For Cn1c(SCC(=O)Nc2cccnc2Cl)nc2ccccc21, which Potency is on record?
Its Potency is “inactive”.

Which Potency does the source give for CCOC(=O)C(CC)/C(C)=N\NC(=O)c1ccccc1O (stereo unspecified) here?
The Potency was inconclusive: 8.2 µM [activator, partial curve, poor fit].

With COc1ccc(/C=N/NC(=O)C2C3CCCCC32)cc1OC (stereo unspecified) as the compound, how does the Potency read?
The Potency was “inactive”.

Which Potency does the source give for Cc1ccc(-c2n[nH]c(Cc3ccccc3)n2)cc1 here?
The Potency was “inactive”.

With Cc1cc(C)cc(NC(=O)C2CCN(C(=O)[C@@H]3Cc4ccccc4CN3)CC2)c1 as the compound, how does the Potency read?
Its Potency is inconclusive: 23.1 µM [activator, single point].

With COc1ccc2c(c1OC)C(=O)OC2Nc1nc(-c2ccc(-c3ccccc3)cc2)cs1 (stereo unspecified) as the compound, how does the Potency read?
The Potency was inconclusive: 16.4 µM [activator, single point].

Which Potency does the source give for Cc1ccc(-c2cc(C(=O)Nc3ccccc3C(N)=O)c3ccccc3n2)o1 here?
Its Potency is inconclusive: 20.6 µM [activator, single point].

For O=C(Nc1ccc(Br)cn1)c1cccc(C(=O)Nc2ccc(Br)cn2)c1, which Potency is on record?
Its Potency is inconclusive: 14.6 µM [activator, single point].

Which Potency does the source give for COc1ccc(-c2cc(C)no2)cc1S(=O)(=O)NCCCN1CCCCCC1 here?
The Potency was inconclusive: 29.1 µM [activator, single point].

Which Potency does the source give for Cn1nc(-c2ccc(Cl)cc2)c2cc(C(=O)NCCN3CCOCC3)sc21 here?
The Potency was “inactive”.

Which Potency does the source give for CCC(C)(C(=O)NC1CCCCC1)N(Cc1cccs1)C(=O)Cc1cccs1 (stereo unspecified) here?
The Potency was “inactive”.

Which Potency does the source give for Cc1cc2cc(C=C(C#N)C#N)c(Cl)nc2cc1C here?
Its Potency is inconclusive: 18.4 µM [activator, partial curve, poor fit].

Which Potency does the source give for CCCN(CCC)c1nc(N(CCC)CCC)[nH]c(=O)n1 here?
Its Potency is inconclusive: 6.51 µM [activator, single point].

For COc1cc(/C=N/NC(=S)NCc2ccco2)cc(OC)c1OC, which Potency is on record?
The Potency was “inactive”.

For Cc1cc2c(OCC(O)CNC3CCCCC3)cccc2[nH]1 (stereo unspecified), which Potency is on record?
Its Potency is inconclusive: 18.4 µM [activator, single point].

Which Potency does the source give for O=C(NNC(=O)c1cnccn1)c1ccc(Cl)cc1 here?
The Potency was inconclusive: 29.1 µM [activator, single point].

With CC(=O)Cc1nsc(NC(=O)c2ccc(-c3cc(C(F)(F)F)ccc3Cl)o2)n1 as the compound, how does the Potency read?
The Potency was inconclusive: 18.4 µM [activator, single point].

Which Potency does the source give for CC(=O)Oc1c(Cl)cc(N(C(C)=O)S(=O)(=O)c2ccccc2)c2ccccc12 here?
Its Potency is active: 6.51 µM.

Which Potency does the source give for Cc1nc(SCC(=O)Nc2cc(Cl)ccc2[N+](=O)[O-])nc(C)c1C here?
Its Potency is “inactive”.

For O=C(CCNc1cccc(C(F)(F)F)c1)c1ccco1, which Potency is on record?
Its Potency is inconclusive: 23.1 µM [activator, single point].

For CCC1CSC(Nc2ccc(C(=O)/C=C/c3ccc(Br)cc3)cc2)=N1 (stereo unspecified), which Potency is on record?
Its Potency is inconclusive: 23.1 µM [activator, single point].

Which Potency does the source give for COc1ccc(F)cc1S(=O)(=O)NC1CCCC1 here?
The Potency was inconclusive: 14.6 µM [activator, partial curve, poor fit].
